{"source": "PubChem BioAssay AID1259425 (University of Nebraska Medical Center, 2018)", "assay": "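Compare each knockdown with KSR1 silencing using changes in marker transcripts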 (primary screen)", "cells": "HCT116 human colon cancer cells", "reagent": "siRNA pool against human genes, 50 nM siRNA", "measurement": "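mRNA of six signature genes measured together by branched-DNA assay after 50 nM siRNA pool, blank removed, divided by geometric mean of two housekeeping genes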", "direction": "BNIP3L mRNA: higher = more BNIP3L transcript after knockdown", "note": "Shown is one part, drawn at random, of about 14,000 deposited reagents. Not all columns of the deposit are shown. Reagent sequences are not shown. The record does not give: the time to read-out."}
{"Gene": "AKAP12", "BNIP3L mRNA, set 1": 0.112}
{"Gene": "KLHL28", "BNIP3L mRNA, set 1": 0.148}
{"Gene": "HYAL1", "BNIP3L mRNA, set 1": 0.0321}
{"Gene": "PTCH2", "BNIP3L mRNA, set 1": 0.0646}
{"Gene": "TMEM216", "BNIP3L mRNA, set 1": 0.0842}

Continued, starting with the last 2 of the part before.
{"Gene": "PTCH2", "BNIP3L mRNA, set 1": 0.0646}
{"Gene": "TMEM216", "BNIP3L mRNA, set 1": 0.0842}
{"Gene": "RAPSN", "BNIP3L mRNA, set 1": 0.0898}
{"Gene": "FASTKD3", "BNIP3L mRNA, set 1": 0.048}
{"Gene": "KCNE3", "BNIP3L mRNA, set 1": 0.099}
{"Gene": "PCIF1", "BNIP3L mRNA, set 1": 0.133}
{"Gene": "DUSP21", "BNIP3L mRNA, set 1": 0.0779}
{"Gene": "NRDE2", "BNIP3L mRNA, set 1": 0.119}
{"Gene": "GLYAT", "BNIP3L mRNA, set 1": 0.0747}
